These results are taken from publication PMC6925144, “A prospective compound screening contest identified broader inhibitors for Sirtuin 1” (Scientific Reports, 2019).

Protein sequences, listed by entry. Tags and fused reporters are not part of them. Residues count along the entry.
UniProt Q96EB6, 2-747 limits assumed: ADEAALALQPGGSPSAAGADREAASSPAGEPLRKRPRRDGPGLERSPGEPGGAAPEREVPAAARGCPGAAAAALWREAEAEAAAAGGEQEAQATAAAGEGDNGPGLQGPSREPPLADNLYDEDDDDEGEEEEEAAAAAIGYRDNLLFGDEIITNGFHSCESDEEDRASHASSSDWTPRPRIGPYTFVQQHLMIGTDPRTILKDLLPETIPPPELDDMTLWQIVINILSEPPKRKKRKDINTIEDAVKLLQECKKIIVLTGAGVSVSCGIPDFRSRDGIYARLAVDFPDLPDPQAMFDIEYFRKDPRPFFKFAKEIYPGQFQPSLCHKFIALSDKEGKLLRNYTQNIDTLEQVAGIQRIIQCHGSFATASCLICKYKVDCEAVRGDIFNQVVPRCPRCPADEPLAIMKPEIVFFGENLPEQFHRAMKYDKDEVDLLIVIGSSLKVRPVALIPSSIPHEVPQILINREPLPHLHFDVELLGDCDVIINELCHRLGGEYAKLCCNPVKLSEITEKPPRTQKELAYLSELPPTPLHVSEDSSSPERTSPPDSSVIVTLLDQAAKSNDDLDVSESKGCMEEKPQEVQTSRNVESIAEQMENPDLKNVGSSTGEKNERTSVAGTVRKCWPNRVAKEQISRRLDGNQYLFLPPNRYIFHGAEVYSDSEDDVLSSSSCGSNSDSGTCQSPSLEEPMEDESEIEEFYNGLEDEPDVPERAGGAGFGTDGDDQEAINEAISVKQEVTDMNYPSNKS

In all, about 3,200 compounds were measured (“TSA(without NAD+) / Primary screening (TSA) / delta Tm (K)”: median about -0.07, highest 2% from about 0.37 on). Some of the results follow.

In this assay the target is NAD-dependent deacetylase Sirtuin 1 (human, UniProt Q96EB6). The assay is described as follows: primary screen, delta tm. Set-up: single well (n = 1). Conditions: 10 µM. In outline:
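Thermal shift of Sirtuin 1 measured without NAD+, compound at 10 µM (n = 1); value is ΔTm, with hits defined as ΔTm > 0.45 K or < −1.5 K. Hits retested at 5, 10, 20 µM (n = 4) and counterscreened on bovine carbonic anhydrase and ABL1 SH2 domain.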
In the case of `O=C(CNC(=O)c1cccs1)NCC(=O)NC1CC1`, the “TSA(without NAD+) / Primary screening (TSA) / delta Tm (K)” value is reported as -0.02 K. The figure for `CCOCCCOC(=O)c1ccc2[nH]c(C(F)F)nc2c1` is -0.02 K.

Take `COc1cccc(C(=O)C2=C(O)C(=O)N(CCCN3CCOCC3)C2c2ccccn2)c1` (stereo not drawn): the “TSA(without NAD+) / Primary screening (TSA) / delta Tm (K)” value is on record as 0.02 K. The same measure for `CCOc1ccc(C(=O)N[C@H](C(=O)Nc2nc[nH]c2C(N)=O)C(C)C)cc1`: -0.05 K.

As to `NC(=O)c1c(NC(=O)C2CCN(c3ncc(C(F)(F)F)cc3Cl)CC2)sc2c1CCC2`, the “TSA(without NAD+) / Primary screening (TSA) / delta Tm (K)” value was 0.39 K. The figure for `CCN(Cc1cccs1)C(=O)CSc1ncnc2c1cnn2C` is -0.15 K.

`Cc1nc(-c2ccc(CCNC(=O)c3ccc(NC(N)=O)cc3)s2)cs1`: the “TSA(without NAD+) / Primary screening (TSA) / delta Tm (K)” value stood at 0.23 K. The figure for `CCOC(=O)C(C#N)C1(C#N)CCCC1` (stereo not drawn) is -0.12 K. With `Sc1nc(C2CC2)n(-c2ccccc2)n1`, the “TSA(without NAD+) / Primary screening (TSA) / delta Tm (K)” value came out at 0.06 K.

For the compound `CC(C)C(N)CN` (stereo not drawn), the “TSA(without NAD+) / Primary screening (TSA) / delta Tm (K)” value is listed as -0.21 K.

Take `COc1ccc(-c2nn(-c3ccccc3)cc2C=C2C(=O)NC(=S)NC2=O)cc1OC`: the “TSA(without NAD+) / Primary screening (TSA) / delta Tm (K)” value is -0.05 K. The same measure for `COc1cccc2cc(C(=O)C3=C(O)C(=O)N(CCCN4CCOCC4)C3c3ccc(F)cc3)oc12` (stereo not drawn): -0.12 K.

As to `CCC1(c2ccc(F)cc2)NC(=O)N(CC(=O)Nc2ccc(C(N)=O)cc2)C1=O` (stereo not drawn), the “TSA(without NAD+) / Primary screening (TSA) / delta Tm (K)” value is -0.22 K. For `O=C1NCCCc2[nH]c3ccc(Cl)cc3c21`, the “TSA(without NAD+) / Primary screening (TSA) / delta Tm (K)” value is reported as -0.13 K. The figure for `Cc1[nH]c2ccc(C(=O)NC3CCC(C(N)=O)CC3)cc2c1C` (stereo not drawn) is 0.13 K; for `COC(=O)c1cccc(NC(=O)COC(=O)c2cc(O)cs2)c1` it is 0.16 K; for `N#Cc1c(NCCOc2ccc3c(c2)CCC(=O)N3)nc2ccccn12` it is -0.12 K.

As for `Cn1cc(C(=O)Nc2cccc(C3(C)NC(=O)NC3=O)c2)c2ccccc21` (stereo not drawn), the “TSA(without NAD+) / Primary screening (TSA) / delta Tm (K)” value is reported as -0.14 K. Turning to `Cc1ccc(Cc2cnc(N)s2)cc1`, the “TSA(without NAD+) / Primary screening (TSA) / delta Tm (K)” value is on record as -0.22 K. The figure for `CC(C)CCN1C(=O)c2ccc(C(=O)OCC(=O)NC(C)C34CC5CC(CC(C5)C3)C4)cc2C1=O` (stereo not drawn) is 0.48 K. The figure for `CN(C)c1ncccc1CNC(=O)CN(C)c1ncnc2nc[nH]c12` is -0.12 K; for `NC(=S)c1ccc(C(=O)Nc2ccc(OC(F)F)cc2)cc1` it is 0.12 K; for `COc1ccc(CNCC(=O)Nc2sc(-c3ccccc3)cc2C(N)=O)cc1` it is -0.12 K.

On to `Cc1ccc(N(C)S(=O)(=O)c2cccc(C(=O)OCC(N)=O)c2)cc1`, for which the “TSA(without NAD+) / Primary screening (TSA) / delta Tm (K)” value was -0.04 K. The figure for `CCOc1cc(/C=C/C(=O)C2C(=O)C=C(C)OC2=O)ccc1OCC(=O)N1CCOCC1` (stereo not drawn) is 0.02 K; for `CC(C)C(NC(=O)CCCn1c(=O)oc2cc([N+](=O)[O-])ccc21)c1nnc2ccccn12` (stereo not drawn) it is -0.08 K. The same measure for `CC(=O)c1ccc(NC(=O)C(C)OC(=O)c2cccc(S(=O)(=O)NC(C)C34CC5CC(CC(C5)C3)C4)c2)cc1` (stereo not drawn): 0.35 K. Turning to `CN(c1ccc(F)cc1)S(=O)(=O)c1ccc(Cl)c(C(=O)Nc2ccc(C(N)=O)cc2)c1`, the “TSA(without NAD+) / Primary screening (TSA) / delta Tm (K)” value was 0.12 K. The same measure for `C=CCOc1ccc(C(=O)C2=C(O)C(=O)N(CCN3CCOCC3)C2c2ccco2)cc1` (stereo not drawn): -0.15 K; for `NC(=O)C1CC(C(=O)NCc2ccc(O)cc2)=NN1c1ccccc1` (stereo not drawn): -0.12 K; for `COc1ccc(NC(=O)NCC(C)(C)SC)cc1`: -0.13 K. The figure for `CC(=O)c1cc(CCC(=O)Nc2ccc(-c3nnc4n3CCCCC4)cc2)oc1C` is 0.02 K; for `CN(c1ccccc1)S(=O)(=O)c1cccc(C(=O)Nc2ccccc2-c2ccccc2)c1` it is 0.23 K; for `c1nc(N2CCOCC2)c2sccc2n1` it is 0.12 K. Turning to `COc1cccc(C(C)CC(=O)N2CCC(Oc3ccnc(C(N)=O)c3)CC2)c1` (stereo not drawn), the “TSA(without NAD+) / Primary screening (TSA) / delta Tm (K)” value was determined as 0.02 K. The same measure for `COc1cccc(CN(C(=O)CN2C(=O)c3cccc(N)c3C2=O)C23CC4CC(CC(C4)C2)C3)c1`: -0.18 K; for `COc1ccc([N+](=O)[O-])cc1NC(=O)C(C)N(NC(=O)COc1cccc(Br)c1)C(C)C(=O)Nc1cc([N+](=O)[O-])ccc1OC` (stereo not drawn): -0.12 K; for `NNc1ncnc2c1cnn2-c1ccc(Cl)cc1`: 0.15 K.

Consider `OCCCNc1nc2ccccc2s1`, for which the “TSA(without NAD+) / Primary screening (TSA) / delta Tm (K)” value is reported as -0.27 K. On to `Cc1ccc(N(C)S(=O)(=O)c2cccc(C(=O)Nc3nc4ccccc4[nH]3)c2)cc1`, for which the “TSA(without NAD+) / Primary screening (TSA) / delta Tm (K)” value is -0.02 K. With `Cc1ccccc1C(=O)N1CCC(C(=O)NC2CCCCCC2)CC1`, the “TSA(without NAD+) / Primary screening (TSA) / delta Tm (K)” value is 0.05 K. Turning to `Cc1onc(-c2ccccc2)c1-c1nnc(CSc2ncnc3sc4c(c23)CCC(C)C4)o1` (stereo not drawn), the “TSA(without NAD+) / Primary screening (TSA) / delta Tm (K)” value is -0.07 K. The figure for `N#Cc1ccc(OCCN2CCCC2C(N)=O)cc1` (stereo not drawn) is -0.17 K.

For `CN(C)C(C)(C)CNc1ncnc2ccsc12`, the “TSA(without NAD+) / Primary screening (TSA) / delta Tm (K)” value came out at 0.02 K.

With `C#CCNC(=O)CNC(=O)c1ccc2c(=O)[nH]c(S)nc2c1`, the “TSA(without NAD+) / Primary screening (TSA) / delta Tm (K)” value was found to be 0.19 K.

For the compound `COC(=O)c1ccc2[nH]c3c(c2c1)CNCC3`, the “TSA(without NAD+) / Primary screening (TSA) / delta Tm (K)” value was -0.11 K. The same measure for `CC(=O)c1ccc(N2CCN(c3ncnc4c3oc3ccccc34)CC2)c(F)c1`: -0.12 K; for `COc1ccc(C(=O)C2=C(O)C(=O)N(CCN3CCOCC3)C2c2ccc(C)o2)cc1OC` (stereo not drawn): -0.01 K.

As for `Cc1ccc(N(C)S(=O)(=O)c2cccc(C(=O)Nc3c(C)cccc3C(C)C)c2)cc1`, the “TSA(without NAD+) / Primary screening (TSA) / delta Tm (K)” value is recorded as -0.13 K.

For the compound `Cn1c(=O)[nH]c(=O)c2c1nc(N1CCC(C(N)=O)CC1)n2CCCSc1nc2ccccc2s1`, the “TSA(without NAD+) / Primary screening (TSA) / delta Tm (K)” value is on record as -0.04 K. The same measure for `CC(NC(=O)c1nccnc1N)c1ccc(NC(=O)C2CC2)cc1` (stereo not drawn): -0.15 K. The same measure for `O=C(CN1CCCC2(CC=CCC2)C1)N1CCc2[nH]c3ccccc3c2C1` (stereo not drawn): -0.23 K; for `Cc1ccc2oc(=O)cc(N3C[C@H]4C[C@H](C3)c3cccc(=O)n3C4)c2c1`: 0.06 K.

`CNC(=O)Cn1ccc(C(F)(F)F)n1`: the “TSA(without NAD+) / Primary screening (TSA) / delta Tm (K)” value was -0.04 K. The same measure for `Cc1c(C(=O)C2=C(O)C(=O)N(CCCN3CCOCC3)C2c2ccccc2)cnn1-c1ccccc1` (stereo not drawn): 0.03 K; for `O=C(Nc1ccc(F)c(F)c1F)c1ccncc1`: -0.05 K.

As for `CCCNC(=O)C1CCCN1c1cc(C(F)(F)F)nc2ccccc12` (stereo not drawn), the “TSA(without NAD+) / Primary screening (TSA) / delta Tm (K)” value was -0.23 K. The figure for `Cc1ccc(-c2nc(CC(=O)NNC(=O)c3cccs3)cs2)c(C)c1` is 0.02 K; for `Cn1c(=O)c2c(ncn2CCCC(=O)Nc2nc(-c3ccc4c(c3)CCC(=O)N4)cs2)n(C)c1=O` it is 0.08 K; for `CCC1CCc2[nH]c3ccc(C)cc3c2C1` (stereo not drawn) it is -0.15 K.

With `COc1ccc(N(C)S(=O)(=O)c2cccc(C(=O)Nc3ccc4c(C)cc(=O)oc4c3)c2)cc1`, the “TSA(without NAD+) / Primary screening (TSA) / delta Tm (K)” value is -0.13 K. The figure for `C=CCOc1ccc(C(=O)C2=C(O)C(=O)N(CCCN3CCOCC3)C2c2ccccc2F)cc1` (stereo not drawn) is -0.04 K; for `C/C(CC12CC3CC(CC(C3)C1)C2)=N/NC1=NS(=O)(=O)c2ccccc21` it is -0.08 K; for `COc1ccc(Nc2ccc3nnnn3n2)cc1OCC1CCCO1` (stereo not drawn) it is -0.22 K. The same measure for `O=C(O)CCS(=O)(=O)[O-]`: -0.03 K; for `CN(C)c1ncnc2c1cc(C(=O)O)n2C`: -0.02 K; for `O=C1NC(Cc2ccccc2)C(=O)N1CN1CCN(C/C=C/c2ccccc2)CC1` (stereo not drawn): -0.01 K. For `CS(=O)(=O)CCS(N)(=O)=O`, the “TSA(without NAD+) / Primary screening (TSA) / delta Tm (K)” value is -0.27 K. Consider `O=C1/C(=C/c2ccccc2)Oc2cc(O)ccc21`, for which the “TSA(without NAD+) / Primary screening (TSA) / delta Tm (K)” value was 0.08 K. The same measure for `NC(=O)c1ccc(NC(=O)CSc2nnc(N)s2)cc1`: -0.24 K; for `Cc1sc2ncnc(N3CCC(C(=O)Nc4sc5c(c4C(N)=O)CCCC5)CC3)c2c1C`: 0.16 K; for `CCn1nnc2cc(C(=O)N3CCN(C(c4ccc(F)cc4)c4ccc(F)cc4)CC3)ccc21`: -0.27 K. The figure for `CCc1ccccc1-n1c(SCCS(C)(=O)=O)nc2ccccc2c1=O` is -0.23 K. The same measure for `COc1cc(CNc2ncccc2C#N)ccn1`: -0.18 K; for `Cc1nc(-c2c[nH]c(C(=O)NCc3ccc(-n4cncn4)cc3)c2)cs1`: -0.21 K; for `COc1ccc(NC(=O)c2ccc(NC(=O)c3cnoc3C)cc2)cc1OCc1cccnc1`: -0.18 K. `Cc1ccc(S(=O)(=O)N2CCC(C(=O)N3CCCCCCC3)CC2)cc1C`: the “TSA(without NAD+) / Primary screening (TSA) / delta Tm (K)” value worked out at 0.15 K.

As for `NC(=O)CCn1cnc2cc(F)c(F)cc21`, the “TSA(without NAD+) / Primary screening (TSA) / delta Tm (K)” value is listed as -0.27 K. The figure for `CN1CCN(C(=O)CCCc2ccccc2)c2nc3ccccc3nc21` is 0.03 K; for `COc1cc(C(=O)NC2CCCNC2=O)cc(OC)c1C` (stereo not drawn) it is -0.18 K; for `CN1CCC(NC(=O)CCc2cnccn2)C1c1ccccc1` (stereo not drawn) it is -0.27 K. The figure for `NC(=O)c1ccc(=O)n(Cc2csc(-c3ccccc3F)n2)n1` is -0.08 K; for `CNC(=O)C1CCCN(c2ncnc3ccsc23)C1` (stereo not drawn) it is -0.28 K; for `O=C(Nc1cccc(S(=O)(=O)NCc2ccco2)c1)C1=NN(c2ccccc2)C(=O)CC1` it is -0.18 K.

As for `O=C(/C=C/c1ccc2c(c1)OCCCO2)N1CCN(S(=O)(=O)/C=C/c2ccccc2)CC1`, the “TSA(without NAD+) / Primary screening (TSA) / delta Tm (K)” value is given as 0.02 K.

For `Cc1ccc2[nH]c3c(c2c1)CC(=O)CC3`, the “TSA(without NAD+) / Primary screening (TSA) / delta Tm (K)” value is reported as -0.17 K.

Consider `COCCCCC(=O)O`, for which the “TSA(without NAD+) / Primary screening (TSA) / delta Tm (K)” value is on record as -0.28 K. As to `COc1ccc(C2NC(=O)c3ccccc3N2)cc1C` (stereo not drawn), the “TSA(without NAD+) / Primary screening (TSA) / delta Tm (K)” value is -0.21 K. The figure for `O=C1NC(=O)N(c2ccc3c(c2)OCO3)C1=O` is 0.13 K. The same measure for `Cn1c(CCNC(=O)CCc2cccnc2)nc2cc(Cl)ccc21`: -0.02 K; for `Cc1cc(C=C(C#N)C#N)c(C)n1C1CC1`: -0.18 K; for `CC1(C)CCC(NC(=O)Cn2c(=O)cnc3ccccc32)c2ccccc21` (stereo not drawn): -0.22 K. The same measure for `O=C(Cn1c(=O)cnc2ccccc21)Nc1ccc(N2CCN(Cc3ccccc3)CC2)cc1`: 0.07 K.
